Assay results reported in PubChem BioAssay AID504834 (National Center for Advancing Translational Sciences (NCATS), 2011).
Out of some 320,000 compounds screened, about 22,000 (6.9%) were called active. The shares of active, inactive and inconclusive entries below differ from those in the screen. Calls come from the whole dose curve; as a rule, active = well fitted inhibition curve with a large enough effect; inconclusive = small, poorly fitted or top-dose-only effect, or another doubt; inactive = no such curve, though single readings can be large or run the other way. Potencies beside an inconclusive call are fits to weak or partial responses and may not hold up.

experiment: Primary qHTS for delayed death inhibitors of the malarial parasite plastid, 96 hour incubation; settings: P. falciparum luciferase reporter growth; series mostly up to 28.7 µM; activity change, negative = inhibition: at the top concentration
In short: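 Delayed-death screen, second-generation endpoint: infected erythrocytes, 2% hematocrit, 0.05% parasitemia final; 96 hours at 37 C, 5% CO2; luciferase detection reagent; luminescence decrease equals reduced growth.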
% is set by controls: 0 for no effect and ±100 for the full control effect; potency is the fitted concentration of half-maximal effect.

Row | Compound | Potency | activity change, negative = inhibition
1 | CCc1cc(C(=O)Cc2cnn(-c3ccccc3)c2)c(O)cc1O | inconclusive: 8.28 µM [inhibitor, partial curve, poor fit] | 
2 | COc1cc2[nH]c(=S)nc(NCc3ccc(Cl)cc3)c2cc1OC | inconclusive: 10.4 µM [inhibitor, partial curve] | 
3 | Cc1cc(NC(=O)/C(C#N)=C/c2ccco2)n(-c2ccccc2)n1 | inconclusive: 13.1 µM [inhibitor, partial curve] | 
4 | CCN(CC)CCNC(=O)c1cc(Br)c(N)cc1OC | inactive | 
5 | Cc1ccc(NC2=NC(c3ccc(F)cc3)n3c(nc(C)cc3=O)N2)cc1 (stereo not given) | inconclusive: 18.5 µM [inhibitor, single point] | 
6 | O=C(NCc1ccccc1)c1ccccc1C(=O)c1ncc[nH]1 | inconclusive: 9.28 µM [inhibitor, partial curve] | 
7 | O=Cc1cccc(Oc2ccc([N+](=O)[O-])cc2[N+](=O)[O-])c1 |  | inactive: 5.89%
8 | NC(=O)NCCCC(=O)O | inconclusive: 18.5 µM [inhibitor, partial curve, poor fit] | 
9 | CCOC(=O)c1sc2nc(SCC#N)n(CCCN3CCCC3=O)c(=O)c2c1C | inconclusive: 0.0329 µM [inhibitor, full curve, poor fit] | 
10 | CC(C)(C)c1ccc(C2(C)NC(=O)NC2=O)cc1 (stereo not given) |  | inactive: 22.7%
11 | CCN1C(=O)/C(=C2\Sc3ccccc3N2CC)OC1=S |  | inactive: -12.6%
12 | COc1cccc(CNC(=O)C(=O)NCC(c2ccco2)N2CCOCC2)c1 (stereo not given) | inconclusive: 2.62 µM [inhibitor, single point] | 
13 | Cc1cc(C)c(NC(=O)CN(C)CC(=O)N(C)CC(=O)Nc2c(Cl)cccc2Cl)c(C)c1 | inconclusive: 4.15 µM [inhibitor, single point] | 
14 | C[N+]1(C)CC2=Cc3ccccc3CC2C1 (stereo not given) |  | inactive: -3.96%
15 | CN1CCN(C(=S)NC(=O)c2ccc(Cl)cc2)CC1 | inconclusive: 2.94 µM [inhibitor, full curve] | 
16 | CCC(=O)Nc1ccc2c(c1)N(C(C)=O)c1ccccc1CC2 | inconclusive: 13.1 µM [inhibitor, single point] | 
17 | Cc1cc(OCC(=O)Nc2cccc(S(=O)(=O)NC3=NCCCCC3)c2)ccc1Cl | inconclusive: 7.38 µM [inhibitor, partial curve, poor fit] | 
18 | COc1cc(OC)cc(C(=O)Nc2nc(CC(=O)NCCc3ccccc3)cs2)c1 | inconclusive: 10.4 µM [inhibitor, single point] | 
19 | CN(c1ccccc1)S(=O)(=O)c1cccc(NC(=O)CC(C)(C)C)c1 | active: 11.7 µM | 
20 | O=C(CCc1nnc(-c2ccccc2)o1)NCc1cc(F)ccc1F | inconclusive: 9.28 µM [inhibitor, partial curve, poor fit] | 
21 | OCCn1nc(-c2ccccc2)cc1-c1ccccc1 | inconclusive: 0.0033 µM [inhibitor, full curve, poor fit] | 
22 | COC(=O)NC(=S)Nc1ccc(Oc2ccc(Cl)cc2Cl)c(Cl)c1 | active: 13.1 µM | 
23 | Cc1cc(C(=O)C(=O)NC(C)C)c(C)n1-c1ccc([N+](=O)[O-])cc1 | inconclusive: 0.0522 µM [inhibitor, full curve, poor fit] | 

Excerpt: compounds 12–13
Row | Compound | Potency | activity change, negative = inhibition
12 | COc1cccc(CNC(=O)C(=O)NCC(c2ccco2)N2CCOCC2)c1 (stereo not given) | inconclusive: 2.62 µM [inhibitor, single point] | 
13 | Cc1cc(C)c(NC(=O)CN(C)CC(=O)N(C)CC(=O)Nc2c(Cl)cccc2Cl)c(C)c1 | inconclusive: 4.15 µM [inhibitor, single point] | 

Carrying on:

Row | Compound | Potency | activity change, negative = inhibition
24 | CCCSc1cc(NCCOC(=O)CCC)c([N+](=O)[O-])c2nonc12 |  | inactive: -19.2%
25 | COc1ccc2c(C)c(CC(=O)N3CCN(C(=O)C4COc5ccccc5O4)CC3)c(=O)oc2c1 (stereo not given) | inconclusive: 18.5 µM [inhibitor, single point] | 
26 | NCCCCC(N)C(=O)O (stereo not given) |  | inactive: -8.26%
27 | CCOc1ccc(N2C(=O)C3CC(C)=C(C)CC3C2=O)c([N+](=O)[O-])c1 (stereo not given) | inconclusive: 4.15 µM [inhibitor, partial curve, poor fit] | 
28 | O=C(Nc1nccs1)c1ccc(Br)o1 |  | inactive: 185%
29 | CCCCC(=O)NC(=S)Nc1cccc(C(=O)O)c1 | inconclusive: 11.7 µM [inhibitor, single point] | 
30 | COc1ccccc1C(=O)Nc1nc2ccccc2s1 | inconclusive: 11.7 µM [inhibitor, single point] | 
31 | CC1CCC2(CC1)SCC(=O)N2c1ccc(F)cc1 (stereo not given) |  | inactive: 10.6%
32 | CCN(CC)C(=O)C1CC(=O)N(c2ccc(F)c(Cl)c2)C1 (stereo not given) | inconclusive: 18.5 µM [inhibitor, single point] | 
33 | O=C(c1cccs1)N1CCN(C/C=C/c2ccccc2)CC1 | inconclusive: 11.7 µM [inhibitor, partial curve] | 
34 | O=C(Nc1sc2c(c1C(=O)c1ccccc1)CCCC2)c1cccnc1 | active: 0.37 µM | 
35 | COCCn1c(-c2cccc(Br)c2)nc2c(c(=O)c3ccccc3n2C)c1=O | inconclusive: 3.29 µM [inhibitor, partial curve] | 
36 | COc1cc(CN(CCN(C)C)Cc2ccccc2)ccc1OCc1ccccc1 | inconclusive: 11.7 µM [inhibitor, partial curve, poor fit] | 
37 | COc1ccccc1NS(=O)(=O)c1cccc(NC(=O)c2ccc3ccccc3n2)c1 | inconclusive: 18.5 µM [inhibitor, single point] | 
38 | CC(C)(C)c1nnc(NC(=O)c2ccc(Cl)nc2)s1 |  | inactive: -23.2%
39 | COC(=O)c1ccc2c(=O)n(-c3ccc(OC)cc3)c(=S)[nH]c2c1 | inconclusive: 11.7 µM [inhibitor, single point] | 
40 | O=C(c1ccncc1)N1N=C(c2ccc(Cl)cc2)CC1c1ccccc1O (stereo not given) | inconclusive: 16.5 µM [inhibitor, single point] | 
41 | O=C1C(=O)N(Cc2cccs2)c2ccccc21 |  | inactive: -3.06%
42 | O=C(CSc1nc2[nH]c(=O)cc(O)c2s1)Nc1nccs1 | inconclusive: 3.7 µM [inhibitor, partial curve, poor fit] | 
43 | CCOC(=O)N1CCN(c2nnc(-c3ccccc3)c3ccccc23)CC1 | inconclusive: 10.4 µM [inhibitor, partial curve] | 
44 | O=S(=O)(c1ccccc1F)N1CCN(C(=S)NCc2ccccc2)CC1 | active: 2.62 µM | 
45 | CCC1CCCCN1S(=O)(=O)c1ccc(NC(=O)C2CCN(C(=O)c3ccco3)CC2)cc1 (stereo not given) | inconclusive: 0.738 µM [inhibitor, full curve] | 
